No constants are given. Whether binding was seen depends on the method and setting. In cells and extracts the contact can be indirect. Some results given as binding are weak or reduced against the parent protein; the word gives no strength. Blank lines part the entries; values can stand above or below the substance they belong to.
Legend:
Test in all cases: cross-linking; in vivo in E. coli FB17/pFB112/pFB124, cells at late log phase in PBSG with 5 mM EDTA, 100 µM bismaleimidoethane (BMOE) 10 min on ice, quenched with β-mercaptoethanol; Western blot with α-MreB antibodies
[1] = target: EcMreB-A125C/C113S/C278S/C324S (E. coli) (UniProt P0A9X4)
[2] = target: EcMreB-D78C/C113S/C278S/C324S (E. coli) (UniProt P0A9X4)
[3] = target: EcMreB-E262C/C113S/C278S/C324S (E. coli) (UniProt P0A9X4)
[4] = target: EcMreB-F84C/C113S/C278S/C324S (E. coli) (UniProt P0A9X4)
[5] = target: EcMreB-F84C/Q120C/C113S/C278S/C324S (E. coli) (UniProt P0A9X4)
[6] = target: EcMreB-F84C/R124C/C113S/C278S/C324S (E. coli) (UniProt P0A9X4)
[7] = target: EcMreB-K77C/C113S/C278S/C324S (E. coli) (UniProt P0A9X4)
[8] = target: EcMreB-Q120C/C113S/C278S/C324S (E. coli) (UniProt P0A9X4)
[9] = target: EcMreB-R124C/C113S/C278S/C324S (E. coli) (UniProt P0A9X4)
[10] = target: EcMreB-R188C/C113S/C278S/C324S (E. coli) (UniProt P0A9X4)
[11] = target: EcMreB-T119C/C113S/C278S/C324S (E. coli) (UniProt P0A9X4)

The chains behind the UniProt entries cited, without tags or fusion partners. Where a name states a change or a piece, a line headed by the entry shows the natural chain unless it says otherwise.
UniProt P0A9X4: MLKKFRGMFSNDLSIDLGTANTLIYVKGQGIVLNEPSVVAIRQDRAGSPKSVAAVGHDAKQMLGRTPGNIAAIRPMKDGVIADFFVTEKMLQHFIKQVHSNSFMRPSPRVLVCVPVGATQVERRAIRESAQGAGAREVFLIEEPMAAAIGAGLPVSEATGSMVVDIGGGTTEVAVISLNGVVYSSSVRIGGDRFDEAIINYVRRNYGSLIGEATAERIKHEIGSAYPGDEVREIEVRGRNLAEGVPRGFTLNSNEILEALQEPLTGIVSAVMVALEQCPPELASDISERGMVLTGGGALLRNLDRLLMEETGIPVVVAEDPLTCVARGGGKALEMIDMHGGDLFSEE

Substance: EcMreB-D78C/C113S/C278S/C324S (from UniProt P0A9X4 1-347)
- binding [2]: binds

Substance: EcMreB-E262C/C113S/C278S/C324S (from UniProt P0A9X4 1-347)
- binding [3]: binds

Substance: EcMreB-F84C/Q120C/C113S/C278S/C324S (from UniProt P0A9X4 1-347)
- binding [5]: binds

Substance: EcMreB-K77C/C113S/C278S/C324S (from UniProt P0A9X4 1-347)
- binding [7]: binds

Substance: EcMreB-Q120C/C113S/C278S/C324S (from UniProt P0A9X4 1-347)
- binding [8]: binds

Substance: EcMreB-R124C/C113S/C278S/C324S (from UniProt P0A9X4 1-347)
- binding [9]: binds

Substance: EcMreB-R188C/C113S/C278S/C324S (from UniProt P0A9X4 1-347)
- binding [10]: binds

Now from value to substance:

- binding [1]: binds
Substance: EcMreB-A125C/C113S/C278S/C324S (from UniProt P0A9X4 1-347)

- binding [4]: binds
Substance: EcMreB-F84C/C113S/C278S/C324S (from UniProt P0A9X4 1-347)

- binding [6]: binds
Substance: EcMreB-F84C/R124C/C113S/C278S/C324S (from UniProt P0A9X4 1-347)

- binding [11]: binds
Substance: EcMreB-T119C/C113S/C278S/C324S (from UniProt P0A9X4 1-347)
